For the test, the target named is human lamin C (66-320) (pLAM5') (human) (UniProt P02545). The test can be described thus: two-hybrid; MatchMaker system, S. cerevisiae HF7c co-transformed with prey (pGAD) and bait (pGBT9 or pLAM5') plasmids; β-galactosidase activity.

Sequences of proteins named here, by UniProt entry; tags and fusion partners are left off. Residues count along the entry.
UniProt P02545, residues 66-320: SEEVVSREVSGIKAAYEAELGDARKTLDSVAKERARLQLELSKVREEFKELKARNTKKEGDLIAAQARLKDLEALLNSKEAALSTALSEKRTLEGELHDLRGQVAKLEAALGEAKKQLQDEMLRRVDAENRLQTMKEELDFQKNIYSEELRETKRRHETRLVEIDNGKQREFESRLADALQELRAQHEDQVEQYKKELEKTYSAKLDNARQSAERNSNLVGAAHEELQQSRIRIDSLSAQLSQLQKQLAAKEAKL

These are yes or no findings as the source states them, for the method shown.

B1: MEK2(275-400), C-terminal 126 residues of MEK2 (pGAD-MEK2(275-400)) (domain or fragment, UniProt P36507 275-400)
chain: LEAIFGRPVVDGEEGEPHSISPRPRPPGRPVSGHGMDSRPAMAIFELLDYIVNEPPPKLPNGVFTPDFQEFVNKCLIKNPAERADLKMLTNHTFIKRSEVEEVDFAGWLCKTLRLNQPGTPTRTAV
Turning to B1, the binding result was “no binding”.
